Assay results as given in the supplement of paper PMC12823440, “Inhibitors supercharge kinase turnover through native proteolytic circuits” (Nature, 2025).
Counter-ions that a name gives are not always drawn. The list shows a part of the results. The calls rarely recur for the same compound in another form.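 Kinases, fused to nanoluciferase, were expressed in K562 cells; luminescence was measured every 4 h from 2 to 18 h as percent of control (DMSO = 100%, positive control = 0%). A time point is decreased if signal falls significantly (2 sigma). Hits were called by the authors by a rule that is not shown; the count of time points alone does not decide it.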

By UniProt entry, the sequences of proteins in these tests, tags left out.
UniProt P21802, whole entry, looked up: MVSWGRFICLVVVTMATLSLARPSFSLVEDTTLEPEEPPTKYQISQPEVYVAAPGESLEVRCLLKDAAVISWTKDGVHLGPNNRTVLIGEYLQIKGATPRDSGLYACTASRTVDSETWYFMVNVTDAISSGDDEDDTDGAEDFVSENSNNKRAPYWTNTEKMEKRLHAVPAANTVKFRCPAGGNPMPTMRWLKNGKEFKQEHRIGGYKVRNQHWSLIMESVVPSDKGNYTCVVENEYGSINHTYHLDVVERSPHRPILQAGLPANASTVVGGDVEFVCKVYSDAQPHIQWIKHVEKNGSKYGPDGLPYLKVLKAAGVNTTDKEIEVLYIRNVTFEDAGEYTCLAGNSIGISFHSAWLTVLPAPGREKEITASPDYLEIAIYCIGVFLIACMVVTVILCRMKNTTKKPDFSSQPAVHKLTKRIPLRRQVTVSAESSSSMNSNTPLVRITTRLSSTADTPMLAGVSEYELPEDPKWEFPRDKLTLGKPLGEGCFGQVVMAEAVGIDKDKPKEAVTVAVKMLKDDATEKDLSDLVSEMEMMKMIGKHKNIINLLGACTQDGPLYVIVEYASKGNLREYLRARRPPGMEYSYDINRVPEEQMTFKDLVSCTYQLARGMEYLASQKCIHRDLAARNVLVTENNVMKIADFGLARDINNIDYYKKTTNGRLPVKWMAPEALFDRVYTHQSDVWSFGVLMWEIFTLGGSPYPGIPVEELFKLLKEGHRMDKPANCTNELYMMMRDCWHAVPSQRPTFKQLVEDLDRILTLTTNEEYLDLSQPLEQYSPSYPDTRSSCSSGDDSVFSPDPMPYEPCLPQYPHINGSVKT
UniProt P22607, whole entry, looked up: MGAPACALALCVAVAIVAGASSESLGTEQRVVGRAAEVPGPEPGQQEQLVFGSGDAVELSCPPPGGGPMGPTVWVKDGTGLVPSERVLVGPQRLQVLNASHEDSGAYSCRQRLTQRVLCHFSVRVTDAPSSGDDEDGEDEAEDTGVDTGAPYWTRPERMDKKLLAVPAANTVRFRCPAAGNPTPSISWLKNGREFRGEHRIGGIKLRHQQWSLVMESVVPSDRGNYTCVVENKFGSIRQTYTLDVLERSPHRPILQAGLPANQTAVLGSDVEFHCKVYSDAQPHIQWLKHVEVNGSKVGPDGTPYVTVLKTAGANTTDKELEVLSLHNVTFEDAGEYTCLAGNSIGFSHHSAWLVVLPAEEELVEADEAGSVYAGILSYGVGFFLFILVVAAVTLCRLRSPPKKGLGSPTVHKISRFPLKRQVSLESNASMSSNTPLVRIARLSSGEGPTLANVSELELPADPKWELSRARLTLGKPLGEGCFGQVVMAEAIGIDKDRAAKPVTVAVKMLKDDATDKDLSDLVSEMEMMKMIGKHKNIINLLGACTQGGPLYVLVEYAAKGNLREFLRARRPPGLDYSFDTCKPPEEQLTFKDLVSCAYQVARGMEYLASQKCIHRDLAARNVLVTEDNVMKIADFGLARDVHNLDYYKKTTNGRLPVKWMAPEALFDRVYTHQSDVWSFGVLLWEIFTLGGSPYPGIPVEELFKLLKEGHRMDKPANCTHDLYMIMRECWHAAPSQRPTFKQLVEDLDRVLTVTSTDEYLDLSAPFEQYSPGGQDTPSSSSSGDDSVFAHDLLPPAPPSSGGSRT

What follows are molecules tested against FGFR2 (UniProt P21802) (assay: kinase-Nluc reporter destabilization hit call (1 = scored as downregulated) (binary); higher = compound decreases kinase abundance). Details: K562; 2-18 h.

kinase-Nluc reporter destabilization hit call, inactive:
O=C(N/N=C/c1coc2ccccc2c1=O)c1cccnc1 (10 µM) 0, O=C(Nc1ccc(CN2CCOCC2)cc1)c1ccc(-c2cccc(Cl)c2)o1 (10 µM) 0, NC(=O)c1nnc(N[C@@H]2CCCC[C@@H]2N)nc1Nc1cccc2cc[nH]c12 (10 µM) 0, COc1cc2ncc(-c3ccccc3)nc2cc1OC [Tyrphostin AG1296] (10 µM) 0, O=C(NOCC(O)CO)c1cc(Br)c(F)c(F)c1Nc1ccc(I)cc1F (stereo not given) (2.5 µM) 0, Cn1cnc(Cn2ccc3ccc(CNCc4[nH]c5ccccc5c4[C@H]4NC(=O)c5ccc(O)cc54)cc32)c1 (10 µM) 0, CC(=O)c1c(C)cc2cccc(O)c2c1O [Nepodin] (10 µM) 0, COc1cc(Nc2ncc(F)c(Nc3ccc4c(n3)N(COP(=O)(O)O)C(=O)C(C)(C)O4)n2)cc(OC)c1OC [Fostamatinib (disodium hexahydrate)] (10 µM) 0, Cc1ccccc1-c1c2nccc(-c3ccc(F)cc3F)c2cc[n+]1[O-] (10 µM) 0, Cn1nccc1Nc1nccc(-c2ccn([C@H](CO)c3ccc(Cl)c(F)c3)c(=O)c2)n1 [Ravoxertinib hydrochloride] (10 µM) 0, Nc1nc(F)nc2c1ncn2[C@@H]1O[C@H](CO)[C@@H](O)[C@@H]1O [Fludarabine] (10 µM) 0, O=C(CSC1=NCCN1)NC1CCCCCC1 [ICCB-19 (hydrochloride)] (2.5 µM) 0, CNC(=O)c1c(F)cccc1Nc1nc(Nc2cc3c(cc2OC)CCN3C(=O)CN(C)C)nc2[nH]ccc12 (10 µM) 0, COc1ccc(-c2ccc3c(N4CCOCC4)nc(N4C[C@@H](C)O[C@@H](C)C4)nc3n2)cc1CO (2.5 µM) 0, CC1=C(C(=O)O)N2C(=O)[C@@H](NC(=O)[C@H](N)C3=CCC=CC3)[C@H]2SC1 [Cephradine] (10 µM) 0, Cc1c(-c2c(F)cc(C(N)=O)c3[nH]c4c(c23)CC[C@H](C(C)(C)O)C4)cccc1-n1c(=O)c2cccc(F)c2n(C)c1=O (2.5 µM) 0, Cn1ncc(Cl)c1-c1cc(C(=O)N[C@H](CN)Cc2ccc(F)c(F)c2)oc1Cl [Uprosertib] (10 µM) 0, Cc1cccc(Oc2cnc(=O)[nH]c2)c1 [Tolimidone] (10 µM) 0, C[C@@H]1CCN(C(=O)CC#N)C[C@@H]1N(C)c1ncnc2[nH]ccc12 [Tofacitinib (citrate)] (10 µM) 0, COc1ccc(OC)c(C2C(C#N)=C(N)Oc3n[nH]c(-c4ccc5ccccc5c4)c32)c1 (stereo not given) (10 µM) 0, C=C1C(=O)O[C@H]2C[C@H](C)C(/C=C/C(C)=O)=CC[C@H]12 [Xanthatin] (2.5 µM) 0, C[C@]1(O)CCN(c2nc(N3C[C@H](O)[C@@H](O)C3)cc(C(F)(F)F)c2C#N)C1 (10 µM) 0, Cc1cc(Nc2ncnc3ccc(NC4=NC(C)(C)CO4)cc23)ccc1Oc1ccn2ncnc2c1 [Tucatinib (hemiethanolate)] (2.5 µM) 0, CCN1CCN(Cc2ccc(Nc3ncc(F)c(-c4cc(F)c5nc(C)n(C(C)C)c5c4)n3)nc2)CC1 [Abemaciclib (methanesulfonate)] (10 µM) 0, Cc1cc(=O)oc2c(C=O)c(O)ccc12 (10 µM) 0, CC1(C)C(O[C@@H]2OC[C@@H](O)[C@H](O)[C@H]2O)CC[C@]23CC24CC[C@]2(C)[C@@H]([C@@]5(C)CC[C@@H](C(C)(C)O)O5)[C@H](O)C[C@@]2(C)C4C[C@@H](O[C@@H]2O[C@H](CO)[C@@H](O)[C@H](O)[C@H]2O)C13 (stereo not given in full) [Astragaloside IV] (10 µM) 0, CC[C@@H](Oc1nc(Oc2cc(C)cc(-c3cccc(CN)c3)c2)c(F)cc1F)C(=O)O (10 µM) 0

Each molecule was assayed against FGFR3 (UniProt P22607) in the same assay as above. Details: K562; 2-18 h.

kinase-Nluc reporter destabilization hit call, inactive:
Cc1[nH]c(/C=C2\C(=O)Nc3ccccc32)c(C)c1CCC(=O)O [(Z)-Orantinib] (10 µM) 0, NC(=O)c1ccc(-c2nc(-c3ccc4c(c3)OCCO4)c(-c3ccccn3)[nH]2)cc1 (10 µM) 0, CCNc1nc(Nc2cc(F)c(C(=O)N3CCOCC3)cc2OC)ncc1C(F)(F)F [GNE-7915 (tosylate)] (10 µM) 0, Cc1cc(O)c2c(c1)C(=O)c1cc(O)cc(O)c1C2=O [Emodin] (10 µM) 0, Cc1ccc(C(=O)Nc2ccc(Oc3cc4cnn(C)c4cc3-c3cn[nH]c3)c(F)c2)c(=O)n1-c1ccc(F)cc1 [Merestinib dihydrochloride] (2.5 µM) 0, C=CC(=O)Nc1cc(C)ccc1Nc1nc(Nc2cc(OC)ncc2C)ncc1C(F)(F)F (10 µM) 0, Oc1cc(O)c2cc(O)c(-c3cc(O)c(O)c(O)c3)[o+]c2c1 [Delphinidin (chloride)] (10 µM) 0, O=C1NC(=O)/C(=C\c2cccc(C(F)(F)F)c2)S1 (2.5 µM) 0, Cc1nc2sccn2c(=O)c1CCN1CCC(=C(c2ccccc2)c2ccc(F)cc2)CC1 (10 µM) 0, CCc1cc2c(cc1N1CCC(N3CCOCC3)CC1)C(C)(C)c1[nH]c3cc(C#N)ccc3c1C2=O [Alectinib (Hydrochloride)] (2 µM) 0, FC(F)(c1ccc2ncccc2c1)c1nnc2ccc(-c3ccncc3)nn12 (10 µM) 0, O=C(N/N=C/c1coc2ccccc2c1=O)c1cccnc1 (10 µM) 0, O=C(Nc1ccc(CN2CCOCC2)cc1)c1ccc(-c2cccc(Cl)c2)o1 (10 µM) 0, NC(=O)c1nnc(N[C@@H]2CCCC[C@@H]2N)nc1Nc1cccc2cc[nH]c12 (10 µM) 0, COc1cc2ncc(-c3ccccc3)nc2cc1OC [Tyrphostin AG1296] (10 µM) 0, O=C(NOCC(O)CO)c1cc(Br)c(F)c(F)c1Nc1ccc(I)cc1F (stereo not given) (2.5 µM) 0, Cn1cnc(Cn2ccc3ccc(CNCc4[nH]c5ccccc5c4[C@H]4NC(=O)c5ccc(O)cc54)cc32)c1 (10 µM) 0, CC(=O)c1c(C)cc2cccc(O)c2c1O [Nepodin] (10 µM) 0, COc1cc(Nc2ncc(F)c(Nc3ccc4c(n3)N(COP(=O)(O)O)C(=O)C(C)(C)O4)n2)cc(OC)c1OC [Fostamatinib (disodium hexahydrate)] (10 µM) 0, Cc1ccccc1-c1c2nccc(-c3ccc(F)cc3F)c2cc[n+]1[O-] (10 µM) 0, Cn1nccc1Nc1nccc(-c2ccn([C@H](CO)c3ccc(Cl)c(F)c3)c(=O)c2)n1 [Ravoxertinib hydrochloride] (10 µM) 0, Nc1nc(F)nc2c1ncn2[C@@H]1O[C@H](CO)[C@@H](O)[C@@H]1O [Fludarabine] (10 µM) 0, O=C(CSC1=NCCN1)NC1CCCCCC1 [ICCB-19 (hydrochloride)] (2.5 µM) 0, CNC(=O)c1c(F)cccc1Nc1nc(Nc2cc3c(cc2OC)CCN3C(=O)CN(C)C)nc2[nH]ccc12 (10 µM) 0, COc1ccc(-c2ccc3c(N4CCOCC4)nc(N4C[C@@H](C)O[C@@H](C)C4)nc3n2)cc1CO (2.5 µM) 0, CC1=C(C(=O)O)N2C(=O)[C@@H](NC(=O)[C@H](N)C3=CCC=CC3)[C@H]2SC1 [Cephradine] (10 µM) 0, Cc1c(-c2c(F)cc(C(N)=O)c3[nH]c4c(c23)CC[C@H](C(C)(C)O)C4)cccc1-n1c(=O)c2cccc(F)c2n(C)c1=O (2.5 µM) 0, Cn1ncc(Cl)c1-c1cc(C(=O)N[C@H](CN)Cc2ccc(F)c(F)c2)oc1Cl [Uprosertib] (10 µM) 0, Cc1cccc(Oc2cnc(=O)[nH]c2)c1 [Tolimidone] (10 µM) 0, C[C@@H]1CCN(C(=O)CC#N)C[C@@H]1N(C)c1ncnc2[nH]ccc12 [Tofacitinib (citrate)] (10 µM) 0, COc1ccc(OC)c(C2C(C#N)=C(N)Oc3n[nH]c(-c4ccc5ccccc5c4)c32)c1 (stereo not given) (10 µM) 0, C=C1C(=O)O[C@H]2C[C@H](C)C(/C=C/C(C)=O)=CC[C@H]12 [Xanthatin] (2.5 µM) 0, C[C@]1(O)CCN(c2nc(N3C[C@H](O)[C@@H](O)C3)cc(C(F)(F)F)c2C#N)C1 (10 µM) 0, Cc1cc(Nc2ncnc3ccc(NC4=NC(C)(C)CO4)cc23)ccc1Oc1ccn2ncnc2c1 [Tucatinib (hemiethanolate)] (2.5 µM) 0, CCN1CCN(Cc2ccc(Nc3ncc(F)c(-c4cc(F)c5nc(C)n(C(C)C)c5c4)n3)nc2)CC1 [Abemaciclib (methanesulfonate)] (10 µM) 0, Cc1cc(=O)oc2c(C=O)c(O)ccc12 (10 µM) 0, CC1(C)C(O[C@@H]2OC[C@@H](O)[C@H](O)[C@H]2O)CC[C@]23CC24CC[C@]2(C)[C@@H]([C@@]5(C)CC[C@@H](C(C)(C)O)O5)[C@H](O)C[C@@]2(C)C4C[C@@H](O[C@@H]2O[C@H](CO)[C@@H](O)[C@H](O)[C@H]2O)C13 (stereo not given in full) [Astragaloside IV] (10 µM) 0, CC[C@@H](Oc1nc(Oc2cc(C)cc(-c3cccc(CN)c3)c2)c(F)cc1F)C(=O)O (10 µM) 0
